The text below walks through data of paper PMC4151019 (Clinical Pharmacology and Therapeutics, 2014).

Structures are written as SMILES.

The test deals with P-gp. As to conditions: rifampicin pretreatment.

Take `CC(C)(C(=O)O)c1ccc(C(O)CCCN2CCC(C(O)(c3ccccc3)c3ccccc3)CC2)cc1` (centres unmarked) [fexofenadine]: the “AUC2,3,6 decrease” value (DBS) came to 48%. Also, the AUClast decrease (plasma) amounted to 51%.
